For one molecule, binding results are on record in paper PMC7261959.

For assay [1], the target named is T1, PGC-1α (peroxisome proliferator-activated receptor gamma coactivator 1-alpha) (rat (endogenous in PC-12)) (UniProt Q9QYK2).
T1 sequence: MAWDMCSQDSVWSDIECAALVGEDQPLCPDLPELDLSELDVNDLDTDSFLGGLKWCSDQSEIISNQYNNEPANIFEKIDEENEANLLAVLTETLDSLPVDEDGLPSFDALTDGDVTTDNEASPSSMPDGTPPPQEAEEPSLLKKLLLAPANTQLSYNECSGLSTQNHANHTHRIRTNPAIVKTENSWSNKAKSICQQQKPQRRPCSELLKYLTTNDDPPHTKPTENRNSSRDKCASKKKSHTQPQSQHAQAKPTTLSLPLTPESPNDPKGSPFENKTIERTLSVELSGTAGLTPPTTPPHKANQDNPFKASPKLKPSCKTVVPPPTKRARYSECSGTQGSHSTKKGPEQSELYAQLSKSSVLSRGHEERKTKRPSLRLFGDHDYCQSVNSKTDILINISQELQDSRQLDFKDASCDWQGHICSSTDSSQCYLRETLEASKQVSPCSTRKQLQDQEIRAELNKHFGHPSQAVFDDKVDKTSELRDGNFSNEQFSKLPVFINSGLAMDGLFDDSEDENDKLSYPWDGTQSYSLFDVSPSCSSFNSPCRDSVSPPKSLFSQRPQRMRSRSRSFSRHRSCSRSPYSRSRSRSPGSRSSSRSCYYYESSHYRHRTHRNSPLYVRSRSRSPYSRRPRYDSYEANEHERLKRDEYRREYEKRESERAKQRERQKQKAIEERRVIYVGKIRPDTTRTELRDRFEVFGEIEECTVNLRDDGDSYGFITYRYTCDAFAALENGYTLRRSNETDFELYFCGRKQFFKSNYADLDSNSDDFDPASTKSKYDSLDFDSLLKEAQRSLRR
The experiment in a line: co-IP; lysates of untreated (control) PC12 cells, precleared; anti-PGC-1α rabbit antibody (1 µg per mg protein) with Protein A/G PLUS agarose overnight; western blot with anti-PGC-1α and anti-SIRT1; rabbit control IgG in parallel. In general terms: In western blotting, separated proteins are transferred to a membrane and probed.

Assay [2] concerns the target T1, PGC-1α (peroxisome proliferator-activated receptor gamma coactivator 1-alpha) (rat (endogenous in PC-12)). The experiment in a line: condition: only PC12 cells treated 24 h with AβOs (0.5 µM); co-IP; lysates of PC12 cells treated 24 h with AβOs (0.5 µM), precleared; anti-PGC-1α rabbit antibody (1 µg per mg protein) with Protein A/G PLUS agarose overnight; western blot with anti-PGC-1α and anti-SIRT1.

These are yes or no findings as the source states them, for the method shown. In cells and extracts the contact can be indirect. Some binding calls cover weakened binding; strength is not graded here.

B1: SIRT1 (silent information regulator 2 homolog 1) (protein, UniProt A0A0G2JZ79 1-741)
chain: MADEAALALQAGGSPSAAAAMEAASQPADEPLRKRPRRDGPGLGRSPGEPSAAAAAAAAAAGCEAASAAAPAALWREAAGAAAASAEREAPATAAAGDGDNGPGLRREPRAADDFDDDEGEEEDEAAAAAAAAIGYRDNLLLADEIITNGFHSCESDDDDRASHASSSDWTPRPRIGPYTFVQQHLMIGTDPRTILKDLLPETIPPPELDDMTLWQIVINILSEPPKRKKRKDINTIEDAVKLLQECKKIIVLTGAGVSVSCGIPDFRSRDGIYARLAVDFPDLPDPQAMFDIEYFRKDPRPFFKFAKEIYPGQFQPSLCHKFIALSDKEGKLLRNYTQNIDTLEQVAGIQRIIQCHGSFATASCLICKYKVDCEAVRGDIFNQVVPRCPRCPADEPLAIMKPEIVFFGENLPEQFHRAMKYDKDEVDLLIVIGSSLKVRPVALIPSSIPHEVPQILINREPLPHLHFDVELLGDCDVIINELCHRLGGEYAKLCCNPVKLSEITEKPPRTQKELVHLSELPPTPLHISEDSSSPERTVPQDSSVIATLVDQTIKNKVDDLEVSEPKSCVEEKSQEVQTYRNVESINVENPDFKAVGSSTGDKNERTSVAETVRKCWPNRLAKEQISKRLDGNQYLFVPPNRYIFHGAEVYSDSEDDALSSSSCGSNSDSGTCQSPSLEEPLEDESEIEEFYNGLEDDADRPECAGGSGADGGDQEAVNEAIAMKQELTDVNCTPDKSEHY
For the molecule B1, the binding result in assay [1] is “binds”; in assay [2] it was “no binding”.
